Test results from patent US20120231996A1 (priority 2006, published 2012).
Square brackets hold non-standard residues; d marks the D form. Ends that are not written are not given here.

Test: general procedure: Fmoc solid-phase peptide synthesis; 2-chlorotrityl polystyrene resin
Settings: cyclisation step
[1] = thioether ring, sequence written open

Substance	outcome	outcome [1]
CG[dP]W	Exclusive disulfide	
Cys-Gly-LPro-Trp		Exclusive disulfide
Cys-Gly-Gly-Trp		Exclusive disulfide
C[dP]GW	Exclusive disulfide	
Cys-Leu-LPro-Trp		Exclusive disulfide
